Values from PubChem BioAssay AID1224830 (NIAID, 2016).

Assay: 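Host factors that control LPS-induced TNF expression in human macrophages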 (primary screen)
System: human THP-1 monocytic leukaemia cells, TNF dual-luciferase reporter clone, PMA-differentiated to macrophage-like cells
Knock-down reagent: siRNA pool against human genes, 50 nM
Timing: LPS for 4 h, given about 3 days after siRNA transfection
Treatment: bacterial LPS (TLR4 ligand), 10 ng/ml
Read-out: 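TNF firefly reporter luminescence divided by renilla, normalised to the plate median, then turned into a robust z-score for each replicate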
Scale: TNF reporter robust z-score: higher = stronger TNF reporter response to LPS
Hit rule: 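a well is active when its z-score exceeds 2.8 or falls below -1.5; control wells carry no call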
Shown is a random part of about 18,000 reagents tested. About 2,900 of all reagents (16%) count as active. 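Calls are made per well; low scores hint the gene aids the LPS response, high scores that it dampens it.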 Repeated entries: four replicate wells of each siRNA pool. Reagent sequences are not shown.

{"gene knocked down":"ESRRG","TNF reporter robust z-score":-0.62,"Outcome":"inactive"}
{"gene knocked down":"ESRRG","TNF reporter robust z-score":2.39,"Outcome":"inactive"}
{"gene knocked down":"ESRRG","TNF reporter robust z-score":-0.22,"Outcome":"inactive"}
{"gene knocked down":"ESRRG","TNF reporter robust z-score":2.24,"Outcome":"inactive"}
{"gene knocked down":"NRROS","TNF reporter robust z-score":0.25,"Outcome":"inactive"}
{"gene knocked down":"NRROS","TNF reporter robust z-score":-0.32,"Outcome":"inactive"}
{"gene knocked down":"NRROS","TNF reporter robust z-score":-0.9,"Outcome":"inactive"}
{"gene knocked down":"NRROS","TNF reporter robust z-score":-0.43,"Outcome":"inactive"}
{"gene knocked down":"CELF2","TNF reporter robust z-score":0.59,"Outcome":"inactive"}
{"gene knocked down":"CELF2","TNF reporter robust z-score":2.49,"Outcome":"inactive"}
{"gene knocked down":"CELF2","TNF reporter robust z-score":1.81,"Outcome":"inactive"}
{"gene knocked down":"CELF2","TNF reporter robust z-score":1.32,"Outcome":"inactive"}
{"gene knocked down":"CISH","TNF reporter robust z-score":-0.15,"Outcome":"inactive"}
{"gene knocked down":"CISH","TNF reporter robust z-score":2.47,"Outcome":"inactive"}
{"gene knocked down":"CISH","TNF reporter robust z-score":-0.94,"Outcome":"inactive"}
{"gene knocked down":"CISH","TNF reporter robust z-score":3.56,"Outcome":"active"}
{"gene knocked down":"FTHL17","TNF reporter robust z-score":0.19,"Outcome":"inactive"}
{"gene knocked down":"FTHL17","TNF reporter robust z-score":0.04,"Outcome":"inactive"}
{"gene knocked down":"FTHL17","TNF reporter robust z-score":-0.33,"Outcome":"inactive"}
{"gene knocked down":"FTHL17","TNF reporter robust z-score":0.81,"Outcome":"inactive"}
{"gene knocked down":"ZPLD1","TNF reporter robust z-score":-0.34,"Outcome":"inactive"}
{"gene knocked down":"ZPLD1","TNF reporter robust z-score":0.09,"Outcome":"inactive"}
{"gene knocked down":"ZPLD1","TNF reporter robust z-score":-0.73,"Outcome":"inactive"}
{"gene knocked down":"ZPLD1","TNF reporter robust z-score":0.34,"Outcome":"inactive"}
{"gene knocked down":"PRELID3B","TNF reporter robust z-score":3.44,"Outcome":"active"}
{"gene knocked down":"PRELID3B","TNF reporter robust z-score":1.04,"Outcome":"inactive"}
{"gene knocked down":"PRELID3B","TNF reporter robust z-score":0.69,"Outcome":"inactive"}
{"gene knocked down":"PRELID3B","TNF reporter robust z-score":-0.11,"Outcome":"inactive"}
{"gene knocked down":"KIF2C","TNF reporter robust z-score":-0.01,"Outcome":"inactive"}
{"gene knocked down":"KIF2C","TNF reporter robust z-score":0.28,"Outcome":"inactive"}
{"gene knocked down":"KIF2C","TNF reporter robust z-score":-0.24,"Outcome":"inactive"}
{"gene knocked down":"KIF2C","TNF reporter robust z-score":0.2,"Outcome":"inactive"}

Sorted by “TNF reporter robust z-score” (high to low): 5 of the entries above
{"gene knocked down":"CISH","TNF reporter robust z-score":2.47,"Outcome":"inactive"}
{"gene knocked down":"CELF2","TNF reporter robust z-score":1.81,"Outcome":"inactive"}
{"gene knocked down":"CELF2","TNF reporter robust z-score":1.32,"Outcome":"inactive"}
{"gene knocked down":"CISH","TNF reporter robust z-score":-0.15,"Outcome":"inactive"}
{"gene knocked down":"CISH","TNF reporter robust z-score":-0.94,"Outcome":"inactive"}
